Measurements from the supplement of paper PMC10849652.
The list shows a part of the results.

By UniProt entry, the sequences of proteins in these tests, tags left out. Where a name states a change or a piece, a line headed by the entry shows the natural chain unless it says otherwise.
UniProt Q96EP1: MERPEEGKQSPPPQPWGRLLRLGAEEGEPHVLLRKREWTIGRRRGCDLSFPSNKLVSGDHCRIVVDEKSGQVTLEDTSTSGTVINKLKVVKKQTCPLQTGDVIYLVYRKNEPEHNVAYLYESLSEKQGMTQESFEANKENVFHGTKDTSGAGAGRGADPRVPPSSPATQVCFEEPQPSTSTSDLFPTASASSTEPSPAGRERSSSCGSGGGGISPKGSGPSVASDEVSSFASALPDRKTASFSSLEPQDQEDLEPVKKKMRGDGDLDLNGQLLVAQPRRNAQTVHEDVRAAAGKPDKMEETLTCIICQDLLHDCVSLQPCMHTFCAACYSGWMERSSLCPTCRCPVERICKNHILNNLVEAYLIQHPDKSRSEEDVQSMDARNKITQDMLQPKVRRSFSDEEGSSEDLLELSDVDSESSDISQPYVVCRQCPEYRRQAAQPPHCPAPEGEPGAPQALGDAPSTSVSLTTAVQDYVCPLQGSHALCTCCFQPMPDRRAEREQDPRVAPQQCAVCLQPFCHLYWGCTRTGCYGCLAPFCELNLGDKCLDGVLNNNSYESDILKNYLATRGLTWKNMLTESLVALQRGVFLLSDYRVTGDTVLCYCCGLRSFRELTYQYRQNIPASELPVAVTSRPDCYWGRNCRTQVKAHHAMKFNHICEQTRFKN
UniProt Q96HQ2: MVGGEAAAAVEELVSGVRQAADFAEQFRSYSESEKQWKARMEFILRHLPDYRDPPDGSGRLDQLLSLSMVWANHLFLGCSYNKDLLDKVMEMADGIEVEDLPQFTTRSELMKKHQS
UniProt Q9Y592: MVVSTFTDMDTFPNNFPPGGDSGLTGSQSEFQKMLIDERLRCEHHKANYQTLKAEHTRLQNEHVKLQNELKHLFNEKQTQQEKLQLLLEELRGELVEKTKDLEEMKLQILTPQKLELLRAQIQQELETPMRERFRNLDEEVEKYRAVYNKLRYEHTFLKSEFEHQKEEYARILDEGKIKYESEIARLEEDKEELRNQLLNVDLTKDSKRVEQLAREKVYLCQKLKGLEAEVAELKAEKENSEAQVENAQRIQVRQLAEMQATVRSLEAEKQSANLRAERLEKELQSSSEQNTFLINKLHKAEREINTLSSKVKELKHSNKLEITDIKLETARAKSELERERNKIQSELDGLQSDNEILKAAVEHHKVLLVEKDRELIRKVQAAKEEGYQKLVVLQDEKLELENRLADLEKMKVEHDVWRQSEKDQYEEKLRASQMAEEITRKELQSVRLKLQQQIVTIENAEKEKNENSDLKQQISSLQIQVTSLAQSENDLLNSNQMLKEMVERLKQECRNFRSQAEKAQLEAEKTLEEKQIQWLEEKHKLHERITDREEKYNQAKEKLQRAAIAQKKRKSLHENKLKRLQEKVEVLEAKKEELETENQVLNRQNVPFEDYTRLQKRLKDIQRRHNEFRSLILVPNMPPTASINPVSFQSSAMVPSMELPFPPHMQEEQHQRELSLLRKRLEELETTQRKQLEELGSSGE
UniProt Q49AH0, whole entry, looked up: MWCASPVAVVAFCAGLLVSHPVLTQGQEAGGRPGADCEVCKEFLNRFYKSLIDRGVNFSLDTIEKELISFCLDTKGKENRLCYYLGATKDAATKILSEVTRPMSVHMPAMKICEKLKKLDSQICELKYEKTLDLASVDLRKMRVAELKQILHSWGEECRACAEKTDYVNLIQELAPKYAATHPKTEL
UniProt Q9HCK8: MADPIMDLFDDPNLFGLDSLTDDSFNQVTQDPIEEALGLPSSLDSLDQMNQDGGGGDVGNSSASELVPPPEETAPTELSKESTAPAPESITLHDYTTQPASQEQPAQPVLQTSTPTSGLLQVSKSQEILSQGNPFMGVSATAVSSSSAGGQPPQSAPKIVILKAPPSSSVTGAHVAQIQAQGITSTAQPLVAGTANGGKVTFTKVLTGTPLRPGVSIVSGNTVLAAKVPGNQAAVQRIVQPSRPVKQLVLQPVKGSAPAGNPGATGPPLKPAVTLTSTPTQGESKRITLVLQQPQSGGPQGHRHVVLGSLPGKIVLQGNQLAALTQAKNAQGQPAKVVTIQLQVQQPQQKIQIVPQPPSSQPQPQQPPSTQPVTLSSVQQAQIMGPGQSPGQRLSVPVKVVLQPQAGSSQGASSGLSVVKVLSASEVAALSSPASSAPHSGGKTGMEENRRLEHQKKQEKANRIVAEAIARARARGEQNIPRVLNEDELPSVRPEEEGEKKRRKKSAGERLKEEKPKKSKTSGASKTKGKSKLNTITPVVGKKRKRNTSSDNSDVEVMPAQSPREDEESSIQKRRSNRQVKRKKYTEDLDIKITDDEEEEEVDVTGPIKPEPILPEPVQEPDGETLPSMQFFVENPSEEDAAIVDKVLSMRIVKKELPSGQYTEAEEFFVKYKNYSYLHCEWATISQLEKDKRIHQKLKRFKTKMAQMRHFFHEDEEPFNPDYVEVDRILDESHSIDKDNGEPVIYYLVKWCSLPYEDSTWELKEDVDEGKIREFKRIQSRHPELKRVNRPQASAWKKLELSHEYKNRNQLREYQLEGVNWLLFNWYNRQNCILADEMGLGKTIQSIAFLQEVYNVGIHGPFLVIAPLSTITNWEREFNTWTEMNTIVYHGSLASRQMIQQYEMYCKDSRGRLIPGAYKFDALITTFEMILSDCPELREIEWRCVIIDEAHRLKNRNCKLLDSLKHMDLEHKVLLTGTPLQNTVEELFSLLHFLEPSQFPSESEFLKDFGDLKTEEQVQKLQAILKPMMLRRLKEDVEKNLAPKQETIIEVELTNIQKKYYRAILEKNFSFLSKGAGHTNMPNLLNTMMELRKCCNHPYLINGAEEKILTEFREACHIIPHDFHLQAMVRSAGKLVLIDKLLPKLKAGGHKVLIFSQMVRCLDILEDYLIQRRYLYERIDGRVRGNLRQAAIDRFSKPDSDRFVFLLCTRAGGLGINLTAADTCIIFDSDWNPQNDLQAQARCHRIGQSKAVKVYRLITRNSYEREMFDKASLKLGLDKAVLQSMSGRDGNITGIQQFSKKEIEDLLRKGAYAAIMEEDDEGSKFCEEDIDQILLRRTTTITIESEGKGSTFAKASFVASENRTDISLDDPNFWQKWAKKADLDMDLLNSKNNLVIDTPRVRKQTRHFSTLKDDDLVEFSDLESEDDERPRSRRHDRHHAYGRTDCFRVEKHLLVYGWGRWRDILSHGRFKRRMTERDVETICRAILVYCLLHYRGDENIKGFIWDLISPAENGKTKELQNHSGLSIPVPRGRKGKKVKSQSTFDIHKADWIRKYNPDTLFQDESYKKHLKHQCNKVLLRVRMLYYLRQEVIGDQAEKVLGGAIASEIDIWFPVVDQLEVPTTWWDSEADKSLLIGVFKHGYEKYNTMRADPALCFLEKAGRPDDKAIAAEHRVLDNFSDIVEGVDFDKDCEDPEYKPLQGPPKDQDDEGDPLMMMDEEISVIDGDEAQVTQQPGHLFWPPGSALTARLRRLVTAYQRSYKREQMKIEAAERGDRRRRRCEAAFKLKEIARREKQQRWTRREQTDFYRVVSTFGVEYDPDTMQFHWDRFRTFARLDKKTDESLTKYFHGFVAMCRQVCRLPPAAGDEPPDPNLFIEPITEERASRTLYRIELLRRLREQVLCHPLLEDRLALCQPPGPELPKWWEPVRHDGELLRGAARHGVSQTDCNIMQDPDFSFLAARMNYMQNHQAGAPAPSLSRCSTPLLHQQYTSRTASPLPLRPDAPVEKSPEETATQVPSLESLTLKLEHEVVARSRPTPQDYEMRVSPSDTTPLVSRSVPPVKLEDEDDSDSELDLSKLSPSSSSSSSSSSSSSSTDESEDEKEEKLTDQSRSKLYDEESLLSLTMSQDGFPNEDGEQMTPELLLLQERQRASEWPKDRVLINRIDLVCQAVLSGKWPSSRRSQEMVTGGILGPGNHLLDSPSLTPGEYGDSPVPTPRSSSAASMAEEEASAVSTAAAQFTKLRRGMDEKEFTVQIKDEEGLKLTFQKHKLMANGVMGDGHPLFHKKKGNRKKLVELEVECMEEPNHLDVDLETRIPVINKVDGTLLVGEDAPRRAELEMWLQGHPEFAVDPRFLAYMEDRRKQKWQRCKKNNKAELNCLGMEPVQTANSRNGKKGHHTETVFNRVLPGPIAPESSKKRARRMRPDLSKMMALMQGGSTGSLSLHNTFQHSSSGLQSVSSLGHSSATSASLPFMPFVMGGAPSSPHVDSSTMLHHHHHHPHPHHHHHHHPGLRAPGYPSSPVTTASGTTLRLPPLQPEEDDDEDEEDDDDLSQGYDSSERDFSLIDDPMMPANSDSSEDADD
UniProt Q6P2H3: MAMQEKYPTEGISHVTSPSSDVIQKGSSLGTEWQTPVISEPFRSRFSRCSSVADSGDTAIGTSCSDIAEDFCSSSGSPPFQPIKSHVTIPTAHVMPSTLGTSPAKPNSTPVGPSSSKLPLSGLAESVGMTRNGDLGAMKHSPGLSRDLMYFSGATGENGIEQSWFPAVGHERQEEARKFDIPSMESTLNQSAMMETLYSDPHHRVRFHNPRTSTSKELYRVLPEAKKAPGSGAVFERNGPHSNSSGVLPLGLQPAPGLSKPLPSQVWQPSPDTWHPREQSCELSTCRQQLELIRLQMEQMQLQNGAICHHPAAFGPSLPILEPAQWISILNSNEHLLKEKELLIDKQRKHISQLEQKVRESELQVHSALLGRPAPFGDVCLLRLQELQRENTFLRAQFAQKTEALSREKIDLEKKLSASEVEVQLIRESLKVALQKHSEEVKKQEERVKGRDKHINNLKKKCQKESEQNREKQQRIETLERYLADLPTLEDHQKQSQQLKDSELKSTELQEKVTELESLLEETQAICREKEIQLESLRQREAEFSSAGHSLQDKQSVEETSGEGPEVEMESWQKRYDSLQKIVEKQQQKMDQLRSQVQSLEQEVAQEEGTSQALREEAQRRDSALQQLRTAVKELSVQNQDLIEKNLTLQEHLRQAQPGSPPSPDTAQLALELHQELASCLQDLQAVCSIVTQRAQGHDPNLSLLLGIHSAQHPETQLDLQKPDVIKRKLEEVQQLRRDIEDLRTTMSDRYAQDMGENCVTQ
UniProt Q99741: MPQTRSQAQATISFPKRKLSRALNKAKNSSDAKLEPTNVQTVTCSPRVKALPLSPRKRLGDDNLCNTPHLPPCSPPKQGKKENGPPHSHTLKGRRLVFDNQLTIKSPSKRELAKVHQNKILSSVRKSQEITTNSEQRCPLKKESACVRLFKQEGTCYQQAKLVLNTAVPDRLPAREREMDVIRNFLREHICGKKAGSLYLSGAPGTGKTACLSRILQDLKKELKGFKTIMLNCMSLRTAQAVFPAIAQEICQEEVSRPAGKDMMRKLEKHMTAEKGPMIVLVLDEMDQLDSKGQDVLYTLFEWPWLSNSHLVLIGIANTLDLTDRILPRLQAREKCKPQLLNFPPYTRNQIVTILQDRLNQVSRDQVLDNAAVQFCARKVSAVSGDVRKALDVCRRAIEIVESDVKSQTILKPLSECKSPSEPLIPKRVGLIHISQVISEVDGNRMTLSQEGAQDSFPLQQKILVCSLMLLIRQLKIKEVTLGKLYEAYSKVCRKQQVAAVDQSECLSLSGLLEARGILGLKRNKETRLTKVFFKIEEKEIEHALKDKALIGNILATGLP
UniProt A8MTT3: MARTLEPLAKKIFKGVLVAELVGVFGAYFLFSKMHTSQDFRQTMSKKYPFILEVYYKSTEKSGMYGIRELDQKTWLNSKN

How the values were obtained:
Test in all cases: log2 fold change, soluble protein after heating vs DMSO (PISA); higher = thermal stabilisation; K562 cells, 10 uM, 30 min; active = over 0.2 and 3.5 SD of the protein, either way, in both replicates (recomputed)
vemurafenib = compound: CCCS(=O)(=O)Nc1ccc(F)c(C(=O)c2c[nH]c3ncc(-c4ccc(Cl)cc4)cc23)c1F [vemurafenib]
Procedure, shortened: (§1)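 K562 cells at 2×10^6 cells/mL were given 10 μM compound for 30 min. Aliquots then went through 3 min of heating across 48°C-58°C, were pooled, and were extracted in PBS with 0.5% NP-40 at 4°C, and the supernatant after 21,000xg for 90 min was quantified by TMTpro 16plex LC-MS/MS with channel sums equalised. Thermal stability relative to control samples, from duplicates, is given as log2 fold change.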

givinostat = compound: CCN(CC)Cc1ccc2cc(COC(=O)Nc3ccc(C(=O)NO)cc3)ccc2c1 [givinostat]
Procedure, shortened: as §1

[1] = compound: CC[C@@H]1C(=O)N(C)c2cnc(Nc3ccc(C(=O)NC4CCN(C)CC4)cc3OC)nc2N1C1CCCC1
Procedure, shortened: as §1

[2] = compound: CCn1c(C(=O)N(C2CC2)C2CC2)cc2c3c(ncn3C)c(Nc3cc(C)n(C)n3)nc21
Procedure, shortened: as §1

[3] = compound: CN(C)CC(=O)Nc1ccc2[nH]c(=O)c3ccccc3c2c1
Procedure, shortened: as §1

[4] = compound: CC1=CC=C(C=C1)SC2=C3C=C(SC3=CN=C2)C(=O)N
Procedure, shortened: as §1

[5] = compound: CC1=NC(=CC=C1)C2=C(N=C(N2)C(C)(C)C)C3=CC4=NC=CN=C4C=C3
Procedure, shortened: as §1

Nexturastat A = compound: CCCCN(Cc1ccc(C(=O)NO)cc1)C(=O)Nc1ccccc1 [Nexturastat A]
Procedure, shortened: as §1

[6] = compound: CCCS(=O)(=O)Nc1ccc(F)c(C(=O)c2c[nH]c3ncc(Cl)cc23)c1F
Procedure, shortened: as §1

[7] = compound: CCCc1cc(C)[nH]c(=O)c1CNC(=O)c1cc(-c2ccnc(N3CCN(C)CC3)c2)cc2c1cnn2C(C)C
Procedure, shortened: as §1

volasertib = compound: CC[C@@H]1C(=O)N(C)c2cnc(Nc3ccc(C(=O)N[C@H]4CC[C@H](N5CCN(CC6CC6)CC5)CC4)cc3OC)nc2N1C(C)C [volasertib]
Procedure, shortened: as §1

epoxomicin = compound: CC[C@H](C)[C@@H](C(=O)N[C@@H]([C@@H](C)O)C(=O)N[C@@H](CC(C)C)C(=O)[C@]1(CO1)C)NC(=O)[C@H]([C@@H](C)CC)N(C)C(=O)C [epoxomicin]
Procedure, shortened: as §1

[8] = compound: CC[C@H](C)N1C=C(C2=C(C=C(C=C21)C3=CN=C(C=C3)N4CCNCC4)C(=O)NCC5=C(C=C(NC5=O)C)C)C
Procedure, shortened: as §1

barasertib = compound: CCN(CCCOc1ccc2c(Nc3cc(CC(=O)Nc4cccc(F)c4)[nH]n3)ncnc2c1)CCOP(=O)(O)O [barasertib]
Procedure, shortened: as §1

rosiglitazone = compound: CN(CCOC1=CC=C(C=C1)C[C@H]2C(=O)NC(=O)S2)C3=CC=CC=N3 (racemic) [rosiglitazone]
Procedure, shortened: as §1

[9] = compound: CC1=C(C=C(C=C1)NC(=O)C2=CC(=CC=C2)N(C)C)NC(=O)C3=CC=C(C=C3)O
Procedure, shortened: as §1

[10] = compound: CC1=C(C=C(C=C1)NC(=O)C2=CC(=CC=C2)C(C)(C)C#N)NC3=CC4=C(C=C3)N=CN(C4=O)C
Procedure, shortened: as §1

[11] = compound: CCn1cc(-c2ccnc3[nH]c(-c4cccc(CN(C)C)c4)cc23)c(-c2ccc(NC(=O)N(C)C)cc2)n1
Procedure, shortened: as §1

[12] = compound: CN1CCC(CNc2ccc3ncc(-c4cccc(OC(F)(F)F)c4)n3n2)CC1
Procedure, shortened: as §1

[13] = compound: CN1C2=C(C3=C1C(=O)N(N=C3)CC4=CC(=CC=C4)N)SC(=C2)S(=O)C
Procedure, shortened: as §1

Measured: log2 fold change

CDC42BPG (UniProt Q6DT37)
inactive: vemurafenib 0.133 | givinostat 0.1 | [1] -0.152 | [2] -0.105 | [3] 0.139

CHFR (UniProt Q96EP1)
inactive: [4] 0.163 | [5] 0.018 | Nexturastat A 0.128 | vemurafenib 0.12 | [6] -0.067 | [7] -0.344 | [1] -0.045 | volasertib -0.204 | epoxomicin 0.145 | [3] -0.042

CDC7 (UniProt O00311)
inactive: vemurafenib 0.049 | [3] -0.036

CDKN2AIPNL (UniProt Q96HQ2)
inactive: [8] -0.09

CDK5RAP2 (UniProt Q96SN8)
inactive: [5] -0.085 | Nexturastat A -0.011 | vemurafenib -0.242 | barasertib 0.272 | epoxomicin -0.219 | [3] 0.108 | rosiglitazone -0.138

CEP83 (UniProt Q9Y592)
inactive: [9] -0.038 | [5] -0.258 | barasertib 0 | [1] 0.056 | rosiglitazone 0.008

CHD1L (UniProt Q86WJ1)
inactive: [10] 0.04 | vemurafenib -0.165 | [11] -0.106 | [3] -0.125 | [12] -0.116

CFL1 (UniProt E9PP50)
inactive: givinostat -0.04 | [8] 0.383 | [2] 0.071 | [11] -0.143 | [12] 0.045

CEBPG (UniProt P53567)
inactive: [9] -0.062 | [4] -0.07 | [6] -0.16 | [1] 0.008 | volasertib 0.132 | [8] -0.395 | [11] 0.081 | [12] 0.098

CDNF (UniProt Q49AH0)
inactive: [5] 0.191 | vemurafenib 0.01 | [3] 0.125 | [13] -0.222

CHD8 (UniProt Q9HCK8)
inactive: [9] -0.009 | Nexturastat A 0.032 | barasertib -0.024 | epoxomicin 0.104 | rosiglitazone 0.109

CEP85 (UniProt Q6P2H3)
inactive: [9] 0.083 | [4] 0.018 | vemurafenib -0.035 | [6] -0.053 | [7] 0.172 | barasertib 0.201 | [1] -0.396 | volasertib 0.009 | [11] 0.074 | [3] -0.131 | rosiglitazone 0.057 | [13] 0.114 | [12] -0.052

CDC6 (UniProt Q99741)
inactive: Nexturastat A 0.453 | epoxomicin 0.16 | [13] 0.165

CER1 (UniProt O95813)
inactive: [11] 1.5 | [12] -0.024

CENPC (UniProt Q03188)
inactive: [4] -0.071 | [5] -0.189 | Nexturastat A 0.124 | vemurafenib 0.076 | [6] -0.039 | givinostat -0.422 | [1] 0 | volasertib -0.095 | [8] -0.095 | epoxomicin -0.061 | [2] 0.091 | [3] -0.127 | [13] 0.111

CDK2AP2 (UniProt O75956)
inactive: [9] -0.14 | [5] 0.021 | Nexturastat A 0.022 | [7] -0.065 | givinostat -0.154 | barasertib -0.029 | [1] 0.078 | [8] -0.04 | epoxomicin 0.137

2 records picked at random from those above, as already listed:
CDC6 (UniProt Q99741)
inactive: Nexturastat A 0.453 | epoxomicin 0.16 | [13] 0.165

CER1 (UniProt O95813)
inactive: [11] 1.5 | [12] -0.024

(next part)

CEBPZOS (UniProt A8MTT3)
inactive: [9] -0.015 | [4] 0.027 | [5] -0.016 | vemurafenib 0.065 | [6] 0.132 | [7] -0.069 | givinostat -0.029 | barasertib 0.059 | [1] 0.002 | volasertib -0.035 | [8] -0.038 | [11] 0.013 | [3] -0.001 | [13] -0.103 | [12] -0.015

CEBPB (UniProt P17676)
inactive: [9] 0.043 | [4] 0.039 | [5] -0.108 | Nexturastat A 0.137 | [6] 0.006 | [7] 0.014 | givinostat -0.145 | barasertib -0.087 | [1] 0.109 | volasertib -0.052 | [8] -0.09 | epoxomicin -0.14 | [2] 0.122 | [11] 0.113 | rosiglitazone 0.027 | [13] 0.006 | [12] 0.213

CHCHD10 (UniProt Q8WYQ3)
inactive: [9] -0.06 | [4] -0.032 | [5] 0.161 | Nexturastat A 0.028 | vemurafenib 0.098 | [6] 0.069 | [7] 0.034 | givinostat -0.215 | barasertib -0.012 | [1] -0.063 | volasertib 0.037 | [8] 0.124 | epoxomicin 0.018 | [2] -0.011 | [3] 0.097 | rosiglitazone 0.029
